Literature values, collected in US9381148B2, “Composition comprising particulate zinc material with a high relative zinc lability” (priority 2003, dated 2016).
For at least one compound, name, drawing or mass did not settle the structure.

Details: cited from earlier work

| SMILES | Log Zn Binding Constant |
| --- | --- |
| O=C(O)C(O)C(=O)O [Tatronic Acid] | 3.2 |
| O=C(O)CNCCNCC(=O)O [EDDA] | 11.1 |
